Results on 1 sequence are retold here after PMC11358013.

Chains of the proteins cited; added tags and fusions are not shown. A line that says so, or that is headed by a name, gives the form on record, which may keep a tag or linker.
human FANCD2 + human FANCI, one chain, as listed by the source, chain 2 of 2: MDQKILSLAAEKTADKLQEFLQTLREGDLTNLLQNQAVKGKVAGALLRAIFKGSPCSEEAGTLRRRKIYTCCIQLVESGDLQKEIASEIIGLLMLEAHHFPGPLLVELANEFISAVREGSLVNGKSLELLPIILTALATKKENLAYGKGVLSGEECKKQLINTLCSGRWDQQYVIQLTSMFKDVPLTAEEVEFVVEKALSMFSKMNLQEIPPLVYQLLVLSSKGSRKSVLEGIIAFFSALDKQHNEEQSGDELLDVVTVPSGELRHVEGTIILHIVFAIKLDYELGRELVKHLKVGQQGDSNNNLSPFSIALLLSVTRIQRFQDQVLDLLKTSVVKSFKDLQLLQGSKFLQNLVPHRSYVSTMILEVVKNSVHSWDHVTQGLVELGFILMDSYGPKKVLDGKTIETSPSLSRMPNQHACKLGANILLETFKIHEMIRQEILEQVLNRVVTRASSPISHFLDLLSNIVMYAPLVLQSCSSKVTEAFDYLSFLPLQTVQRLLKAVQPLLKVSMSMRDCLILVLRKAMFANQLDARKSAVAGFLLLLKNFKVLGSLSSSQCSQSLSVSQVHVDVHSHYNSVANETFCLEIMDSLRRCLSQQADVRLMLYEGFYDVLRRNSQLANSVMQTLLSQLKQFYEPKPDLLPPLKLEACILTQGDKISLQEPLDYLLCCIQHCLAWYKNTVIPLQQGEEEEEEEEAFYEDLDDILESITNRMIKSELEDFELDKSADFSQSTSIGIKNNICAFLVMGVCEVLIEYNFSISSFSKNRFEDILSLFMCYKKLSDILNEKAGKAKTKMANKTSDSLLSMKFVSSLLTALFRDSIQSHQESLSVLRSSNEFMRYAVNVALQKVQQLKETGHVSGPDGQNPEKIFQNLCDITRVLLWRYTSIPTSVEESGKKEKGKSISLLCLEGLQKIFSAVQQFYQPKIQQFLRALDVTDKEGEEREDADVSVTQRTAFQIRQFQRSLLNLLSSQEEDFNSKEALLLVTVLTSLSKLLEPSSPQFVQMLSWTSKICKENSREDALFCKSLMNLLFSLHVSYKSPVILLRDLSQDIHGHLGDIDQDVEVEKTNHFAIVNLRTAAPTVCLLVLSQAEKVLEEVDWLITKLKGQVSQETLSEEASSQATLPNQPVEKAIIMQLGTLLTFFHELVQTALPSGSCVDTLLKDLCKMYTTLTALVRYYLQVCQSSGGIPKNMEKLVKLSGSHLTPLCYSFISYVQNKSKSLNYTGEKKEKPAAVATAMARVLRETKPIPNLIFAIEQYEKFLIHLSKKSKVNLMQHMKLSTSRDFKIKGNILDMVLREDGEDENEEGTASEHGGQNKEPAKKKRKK
human FANCD2 + human FANCI, one chain, as listed by the source, chain 1 of 2: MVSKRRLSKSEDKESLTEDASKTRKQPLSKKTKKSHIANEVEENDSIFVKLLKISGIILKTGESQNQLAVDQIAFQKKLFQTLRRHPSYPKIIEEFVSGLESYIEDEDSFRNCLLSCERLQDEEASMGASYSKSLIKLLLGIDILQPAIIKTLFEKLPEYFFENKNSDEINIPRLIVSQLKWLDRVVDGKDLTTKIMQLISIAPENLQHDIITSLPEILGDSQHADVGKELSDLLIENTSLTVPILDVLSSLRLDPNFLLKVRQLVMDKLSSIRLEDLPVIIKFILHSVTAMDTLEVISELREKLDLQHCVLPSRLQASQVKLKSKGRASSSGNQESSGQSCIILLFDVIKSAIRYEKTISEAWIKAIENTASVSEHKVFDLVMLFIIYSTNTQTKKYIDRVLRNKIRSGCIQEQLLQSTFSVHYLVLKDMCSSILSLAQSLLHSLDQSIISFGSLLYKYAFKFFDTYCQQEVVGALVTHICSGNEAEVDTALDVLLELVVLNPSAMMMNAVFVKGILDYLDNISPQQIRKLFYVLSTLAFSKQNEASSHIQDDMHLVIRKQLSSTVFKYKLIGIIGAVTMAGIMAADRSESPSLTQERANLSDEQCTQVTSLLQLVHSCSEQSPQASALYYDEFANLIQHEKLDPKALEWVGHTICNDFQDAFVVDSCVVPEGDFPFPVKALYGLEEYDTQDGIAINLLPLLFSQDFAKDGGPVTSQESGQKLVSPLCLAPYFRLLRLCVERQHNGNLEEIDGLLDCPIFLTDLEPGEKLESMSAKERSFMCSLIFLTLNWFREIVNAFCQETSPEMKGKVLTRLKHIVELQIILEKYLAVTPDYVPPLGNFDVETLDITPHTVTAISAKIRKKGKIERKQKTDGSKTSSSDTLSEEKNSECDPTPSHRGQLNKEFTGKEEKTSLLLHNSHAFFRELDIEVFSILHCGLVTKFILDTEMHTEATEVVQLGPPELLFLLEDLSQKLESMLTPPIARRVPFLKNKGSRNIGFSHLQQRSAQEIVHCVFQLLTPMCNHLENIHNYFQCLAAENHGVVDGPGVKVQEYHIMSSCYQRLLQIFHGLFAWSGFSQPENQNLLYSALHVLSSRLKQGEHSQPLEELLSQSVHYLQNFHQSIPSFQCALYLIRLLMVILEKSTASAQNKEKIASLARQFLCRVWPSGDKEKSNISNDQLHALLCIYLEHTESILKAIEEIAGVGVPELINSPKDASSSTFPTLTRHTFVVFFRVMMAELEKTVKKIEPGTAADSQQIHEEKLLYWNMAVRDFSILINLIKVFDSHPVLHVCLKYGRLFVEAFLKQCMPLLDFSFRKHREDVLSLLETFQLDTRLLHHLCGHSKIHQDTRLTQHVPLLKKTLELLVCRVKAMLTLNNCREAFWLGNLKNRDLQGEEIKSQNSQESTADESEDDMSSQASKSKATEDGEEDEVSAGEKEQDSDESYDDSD

Construct, isoform or probe ends are uncertain for at least one entry.

The test system of one series is FANCD2 WT + FANCI WT. Nature of the series: cryo-EM. The following applies: 3.7 A, sliding state, switchSENSE: 20 mM HEPES pH 8.0, 75 mM NaCl, 1 mM TCEP, 25 C, cryo-EM and single-molecule: 20 mM HEPES pH 7.5, 75 mM NaCl, recombinant protein.
The subject of series [1] is human FANCD2 + human FANCI. Description: cryo-EM. The settings on record: human D2-I closes on 44 bp dsDNA, switchSENSE: 20 mM HEPES pH 8.0, 75 mM NaCl, 1 mM TCEP, 25 C, cryo-EM and single-molecule: 20 mM HEPES pH 7.5, 75 mM NaCl, recombinant protein, protein details: tag cleaved (3C),tag cleaved (3C).

For the sequence “ATCGATGTCTCTAGACAGCTGCTCAGGATTGATCTGTAATGGCC (double strand) [44 bp dsDNA (cryo-EM)]”, the binding result (in the series with FANCD2 WT + FANCI WT; in series [1]) was “binds” throughout.
